# Experimental data as given in article PMC5996148.
# Protein sequences, listed by entry. Tags and fused reporters are not part of them. Lines headed by an entry give the natural chain unless they say otherwise; changes in a name come on top.
# UniProt P09471: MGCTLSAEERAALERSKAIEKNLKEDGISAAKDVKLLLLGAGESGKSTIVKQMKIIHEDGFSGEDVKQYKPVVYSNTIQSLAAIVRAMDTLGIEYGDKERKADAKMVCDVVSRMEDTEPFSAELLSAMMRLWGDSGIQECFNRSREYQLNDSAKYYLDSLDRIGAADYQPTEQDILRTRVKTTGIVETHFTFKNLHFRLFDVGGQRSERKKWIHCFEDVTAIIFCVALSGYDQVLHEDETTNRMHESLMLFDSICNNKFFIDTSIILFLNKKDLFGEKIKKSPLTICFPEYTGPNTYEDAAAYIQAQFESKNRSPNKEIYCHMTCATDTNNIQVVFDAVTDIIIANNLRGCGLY
# “And” between values parts separate entries of the source, which are not always exact repeats. Equal entries are not always repeated. The list shows a part of the results. For some assays here: The exact form of the protein is not confirmed.
# How the values were obtained:
# Assay in all cases: protein microarray (ProtoArray v5.0), streptavidin-Alexa Fluor 647
# Conditions in all cases: 3'-biotin; 20 mM Tris (pH 7.5), 5 mM MgCl2, 100 mM KCl, 0.1% Tween-20, A/T-rich and random oligonucleotide blockers; temperature not stated; high values mean tight binding
# [1] = tested on: GLRX5 (human)
# [2] = tested on: GLUL (human)
# [3] = tested on: GLYATL1 (human)
# [4] = tested on: GLYATL2 (human)
# [5] = tested on: GLYCTK (human)
# [6] = tested on: GMEB1 (human)
# [7] = tested on: GMPR2 (human)
# [8] = tested on: GNA15 (human)
# [9] = tested on: GNAI2 (human)
# [10] = target: GNAO1 (UniProt P09471)
# [11] = tested on: GNAQ (human)
# [12] = tested on: GNB5 (human)
# [13] = tested on: GNE (human)
# [14] = tested on: GNG13 (human)
# [15] = tested on: GNG4 (human)
# [16] = tested on: GNGT1 (human)
# [17] = tested on: GNMT (human)
# [18] = tested on: GNPAT (human)
# [19] = tested on: GNPTAB (human)
# [20] = tested on: GOLPH2 (human)
sequence,measurement,setting,value
GGGAGGCTGAGGCAGG [G4-1 biotinylated (PQS2)],binding signal,[1],-0.32 z-score
same,binding signal,[2],-0.302 z-score and -0.327 z-score
same,binding signal,[3],-0.31 z-score
same,binding signal,[4],-0.336 z-score
same,binding signal,[5],-0.334 z-score
same,binding signal,[6],-0.331 z-score
same,binding signal,[7],-0.321 z-score
same,binding signal,[8],-0.295 z-score
same,binding signal,[9],-0.277 z-score
same,binding signal,[10],-0.268 z-score
same,binding signal,[11],-0.32 z-score
same,binding signal,[12],-0.325 z-score
same,binding signal,[13],-0.299 z-score
same,binding signal,[14],-0.368 z-score
same,binding signal,[15],-0.341 z-score
same,binding signal,[16],-0.342 z-score
same,binding signal,[17],-0.34 z-score
same,binding signal,[18],-0.306 z-score
same,binding signal,[19],-0.337 z-score
same,binding signal,[20],-0.346 z-score

# Pulled one by one from the list above (two):
sequence,measurement,setting,value
GGGAGGCTGAGGCAGG [G4-1 biotinylated (PQS2)],binding signal,[5],-0.334 z-score
same,binding signal,[15],-0.341 z-score
